PubChem BioAssay AID1224826 – NIAID | 2016
Purpose: 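Regulators of Tlr4 signalling leading to Tnf-alpha expression in macrophages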 (primary screen). Cell system: RAW264.7 G9 macrophages from mouse bearing reporters for p65 (GFP) and the Tnf promoter (mCherry). Reagents: siRNA pool against mouse genes, 100 nM. Time to read-out: 16 h of LPS stimulation, after 2 days of siRNA transfection. Challenge: bacterial lipopolysaccharide (Salmonella minnesota R595), 10 ng/ml. Measured: 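Imaged Tnf reporter mCherry in nuclei, minus background, normalised per plate to the median and expressed as robust z-scores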. Direction: Tnf reporter robust z-score: higher = stronger Tnf promoter reporter signal after LPS. Active means: 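a well counts as active at a score of -1.3 or below (Tlr4 knock-down control median) or above 3 (raised signal); controls and wells holding fewer than 50 cells are excluded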. Calls: active = Tnf reporter clearly lowered or raised; inactive = no clear change in Tnf reporter.
This is an unselected part of about 17,000 reagents tested. About 1,110 of them (6.6%) count as active. 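Active means lowered or raised reporter signal; replicate intensities are raw and not normalised per plate.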 The numbers tell different reagents against one gene apart. Further read-outs or replicates are left out here.

Nrdc (nardilysin convertase) showed Tnf reporter robust z-score 0.76; fewer than 50 cells in well enough cells in well; inactive.
Knock-down of Dach2 (dachshund family transcription factor 2) resulted in: Tnf reporter robust z-score -0.27; fewer than 50 cells in well enough cells in well; inactive.
Against Acer2 (alkaline ceramidase 2) #1, the values are Tnf reporter robust z-score -1.03; fewer than 50 cells in well enough cells in well; inactive.
Acer2 (alkaline ceramidase 2) #2 showed Tnf reporter robust z-score -0.71; fewer than 50 cells in well enough cells in well; inactive.
Folh1 (folate hydrolase 1) gave Tnf reporter robust z-score -0.77; fewer than 50 cells in well enough cells in well; inactive.
Cd200 (CD200 molecule) scored Tnf reporter robust z-score -0.51; fewer than 50 cells in well enough cells in well; inactive.
Knock-down of Cebpg (CCAAT/enhancer binding protein gamma) resulted in: Tnf reporter robust z-score 0.51; fewer than 50 cells in well enough cells in well; inactive.
Cs (citrate synthase) gave Tnf reporter robust z-score -0.45; fewer than 50 cells in well enough cells in well; inactive.
Knock-down of Sergef (secretion regulating guanine nucleotide exchange factor) came out at: Tnf reporter robust z-score -0.6; fewer than 50 cells in well enough cells in well; inactive.
For Psmc4 (proteasome (prosome, macropain) 26S subunit, ATPase, 4), the entry reads fewer than 50 cells in well fewer than 50 cells per well; well left out of calls; inactive.
For Bnip3 (BCL2/adenovirus E1B interacting protein 3) the deposit lists Tnf reporter robust z-score -1; fewer than 50 cells in well enough cells in well; inactive.
After knock-down of Ppp5c (protein phosphatase 5, catalytic subunit), the screen gave Tnf reporter robust z-score -1.75; fewer than 50 cells in well enough cells in well; active.

Single entries from above.
Value of Nrdc (nardilysin convertase) in “outcome”: inactive
Psmc4 (proteasome (prosome, macropain) 26S subunit, ATPase, 4), outcome → inactive

Continued.
Silencing of Ptprcap resulted in: Tnf reporter robust z-score 0.43; fewer than 50 cells in well enough cells in well; inactive.
Against Zbtb21 (zinc finger and BTB domain containing 21) the deposit lists fewer than 50 cells in well fewer than 50 cells per well; well left out of calls; inactive.
For Man2b1 (mannosidase 2, alpha B1) the deposit lists Tnf reporter robust z-score -0.06; fewer than 50 cells in well enough cells in well; inactive.
For Zkscan14 (zinc finger with KRAB and SCAN domains 14), the values are Tnf reporter robust z-score 0.78; fewer than 50 cells in well enough cells in well; inactive.
Against Rapgef3 (Rap guanine nucleotide exchange factor (GEF) 3), the values are Tnf reporter robust z-score 0.84; fewer than 50 cells in well enough cells in well; inactive.
For Zfp287 (zinc finger protein 287) the deposit lists Tnf reporter robust z-score -0.32; fewer than 50 cells in well enough cells in well; inactive.
Knock-down of Dusp6 (dual specificity phosphatase 6) came out at: Tnf reporter robust z-score 2.68; fewer than 50 cells in well enough cells in well; inactive.
Etv6 (ets variant 6) showed Tnf reporter robust z-score 0.66; fewer than 50 cells in well enough cells in well; inactive.
With knock-down of Or51i1 (olfactory receptor family 51 subfamily I member 1D), the record shows Tnf reporter robust z-score -0.58; fewer than 50 cells in well enough cells in well; inactive.
